The other results are listed elsewhere or left out. These are further read-outs of the screen, such as a control signal, another cell line or another target. No call is given for them. Compounds called inactive in the main read-out are mostly missing here. The note in brackets gives the kind of curve behind each potency; many fits are weak.
Test: IkB Signaling
Settings: ABC-DLBCL IkBa-CBG/CBR dual luciferase ratio (green luciferase fused to IkBa over red control in OCI-Ly3 lymphoma cells), 4 h
Procedure, shortened: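 Luminescence ratio of IκBα-fused green versus native red beetle luciferase in OCI-Ly3 cells, 4 h post-doxycycline with compound; red signal alone, scaled from basal (0%) to zero light (-100%), flagged nonspecific or cytotoxic effects.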

[1] = measured here: control luc red channel unless noted

O=C(CSc1nnc2scc(-c3ccccc3)n12)Nc1ccc(Cl)cc1
AC50 [1]: 39.8 µM [falling, single point]

CCOC(=O)c1ccc(NC(=O)c2ccc(CN3C(=O)CCn4nc(C)cc43)cc2)cc1
AC50 [1]: 0.2 µM [rising, full curve]

O=C(Cn1c(=O)c2ccccc2n2nncc12)Nc1cccc(F)c1
AC50 [1]: 2.51 µM [falling, full curve]

CC1CCN(c2ccc(-c3nc(-c4ccccc4)no3)cc2[N+](=O)[O-])CC1
AC50 [1]: 12.6 µM [falling, partial curve]

Cc1ccccc1Cn1cnc2nc3c(cc2c1=O)CC(C)CC3 (stereo not drawn)
AC50 [1]: 0.501 µM [rising, partial curve]

Cc1cc(N2CCCCC2)nc2ccc(NC(=O)/C=C/c3ccc(OCCC(C)C)cc3)cc12
AC50 [1]: 0.0158 µM [rising, full curve]

O=C1OCC2=C1C(c1ccc3c(c1)OCO3)Sc1ccccc1N2 (stereo not drawn)
AC50 [1]: 20 µM [falling, partial curve]

CCOC(=O)C1CCCN(C(=O)c2ccc3c(c2)N(Cc2ccc(Cl)cc2)C(=O)c2ccccc2S3=O)C1 (stereo not drawn)
AC50 [1]: 25.1 µM [falling, partial curve]

COc1cccc(NC(=O)Nc2ccc3nc(N4CCN(C)CC4)cc(C)c3c2)c1
AC50 [1]: 31.6 µM [falling, single point]

CCCCNC(=O)CCn1c(=O)c2ccccc2n(Cc2cccc(Cl)c2)c1=O
AC50 [1]: 39.8 µM [rising, partial curve]

Cc1nc(N2CCCC2)c2c(C(=O)Nc3ccc(Br)cc3F)c(C)oc2n1
AC50 [1]: 39.8 µM [falling, single point]

NCCCCNS(=O)(=O)c1ccc2c(Cl)cccc2c1
AC50 [1]: 31.6 µM [falling, partial curve, poor fit]

Cc1ccc(Cn2nnc3c(=O)[nH]c(C4CCN(S(=O)(=O)c5ccccc5)CC4)nc32)cc1
AC50 (measured here: IkB-luc green channel): 31.6 µM [falling, partial curve, poor fit] | AC50 (measured here: control luc red channel): 20 µM [falling, partial curve]

Cc1ccccc1C(=O)Nc1nc(-c2ccc(Br)cc2)ns1
AC50 [1]: 2.51 µM [falling, full curve]

O=C(CSc1nnnn1-c1ccccc1)Nc1nsc(-c2ccccc2)n1
AC50 [1]: 6.31 µM [falling, partial curve]

CC(C)Oc1ccc(CNC(=O)C2CCN(C(=O)N3CC(C)Oc4ccccc43)CC2)cc1 (stereo not drawn)
AC50 [1]: 0.631 µM [falling, full curve]

CC(C)n1c(SCc2ccccc2F)nc2c1c(=O)n(C)c(=O)n2C
AC50 [1]: 20 µM [falling, partial curve]

CCN1CC=C2C(C1)C(c1ccc(Cl)s1)C(C#N)=C(N)C2(C#N)C#N (stereo not drawn)
AC50 [1]: 3.98 µM [rising, partial curve] [measured here: IkB-luc green channel]

CCOc1ccc2nc(N3CCC(C(=O)Nc4cc(C)ccc4C)CC3)sc2c1
AC50 [1]: 10 µM [falling, partial curve]

Cc1cc(C)n(-c2ccc(C(=O)Nc3ccc4c(c3)OCCO4)cc2)n1
AC50 [1]: 15.8 µM [falling, partial curve]

O=C(NC1CCCCC1)c1ccc(CSc2nc3ccncc3n2Cc2ccccc2F)cc1
AC50 [1]: 31.6 µM [falling, partial curve]

O=C(CSCc1cnn(-c2ccccc2)c1-n1cccc1)NCc1ccc(F)cc1
AC50 [1]: 6.31 µM [rising, single point]

Oc1c(C(c2ccccc2Cl)N2CCN(Cc3ccccc3)CC2)sc2nc(-c3ccco3)nn12 (stereo not drawn)
AC50 [1]: 6.31 µM [rising, single point]

Cc1sc2nc(SCC(=O)NCc3cccs3)[nH]c(=O)c2c1C
AC50 [1]: 12.6 µM [falling, partial curve]

Cc1ccccc1CNC(=O)c1ccc2c(c1)c(C)c(C)n2C
AC50 [1]: 25.1 µM [falling, single point]

CN(C)c1ccc(CNC(=O)c2ccc(Cn3c(SCc4ccccc4)nc4cccnc43)cc2)cc1
AC50 [1]: 7.94 µM [falling, partial curve]

Cc1ccc(Cl)cc1NC(=O)C1CCN(c2nnc(C)c3c(C)n(-c4ccccc4)nc23)CC1
AC50 [1]: 31.6 µM [falling, single point]

Cc1ccccc1Cn1nnc2c(=O)[nH]c(C3CCN(C(=O)c4ccc(F)cc4)CC3)nc21
AC50 [1]: 2.51 µM [rising, partial curve]

COCC(=O)Nc1cccc2ccccc12
AC50 [1]: 1 µM [falling, full curve]

FC(F)Oc1ccccc1C1CC(c2ccc(Br)s2)Nc2ncnn21 (stereo not drawn)
AC50 [1]: 15.8 µM [falling, partial curve]

Cc1ccccc1N1CCN(S(=O)(=O)c2nnc(NC(=O)c3ccc(C(C)C)cc3)s2)CC1
AC50 [1]: 12.6 µM [falling, single point]

COc1cc(NC(=O)c2cc(C3CC3)nc3c2c(C)nn3-c2ccccc2)cc(OC)c1
AC50 [1]: 20 µM [falling, partial curve]

CCCCCn1c(NCc2ccc(OC)cc2)nc2ccccc21
AC50 [1]: 12.6 µM [falling, partial curve]

COc1ccccc1OC(C)C(=O)Nc1cccc(-c2nc3ccccc3s2)c1 (stereo not drawn)
AC50 [1]: 3.16 µM [falling, partial curve]

c1ccc(COc2ccc(OCCCn3cncn3)cc2)cc1
AC50 [1]: 31.6 µM [falling, single point]

NC(=O)c1ccccc1N/C=C/C(=O)c1ccco1
AC50 [1]: 3.98 µM [falling, full curve]

Cc1cc(C)cc(NC(=O)Cn2c(-c3cncs3)nc3ccccc32)c1
AC50 [1]: 12.6 µM [falling, single point]

CCOC(=O)N1CCC(NC(=O)c2cc3c(C)nc4ccccc4c3o2)CC1
AC50 [1]: 7.94 µM [falling, partial curve]

CC(=O)Nc1nonc1-c1nnc(SCC(=O)Nc2ccc(C)cc2)n1-c1ccccc1
AC50 [1]: 12.6 µM [falling, partial curve]

COc1ccc(-c2cc(-c3ccccc3)c(C#N)c(SCC(O)CS(=O)(=O)Cc3ccc(Cl)cc3)n2)cc1 (stereo not drawn)
AC50 [1]: 6.31 µM [falling, partial curve, poor fit]

CCCN1CCN(c2ncnc3sc(C(=O)Nc4ccc(C(C)C)cc4)c(C)c23)CC1
AC50 [1]: 31.6 µM [falling, partial curve]

COc1cccc(N2CCN(C(=O)c3ccc(C)c(NC(=O)c4nsc5ccccc45)c3)CC2)c1
AC50 [1]: 39.8 µM [falling, single point]

Cc1ccc(N(CC(=O)NCCc2ccc(Cl)cc2)S(=O)(=O)c2c(C)noc2C)cc1
AC50 [1]: 6.31 µM [falling, partial curve]

COc1ccc(CN2CCc3c(c(=O)n4ncc(C(=O)N5CCN(c6ccccc6OC)CC5)c4n3C)C2)cc1
AC50 [1]: 25.1 µM [falling, single point]

CCc1ccc(-n2c(=O)c3c4c(sc3n(CC(=O)c3ccc(F)cc3)c2=O)CCC4)cc1
AC50 [1]: 39.8 µM [falling, single point]

COc1ccc(-c2ccc3c(N)c(C(=O)c4ccc(OC)c(OC)c4)sc3n2)cc1
AC50 [1]: 39.8 µM [falling, single point]

CN(CCC#N)C(=O)CSc1ncnc2sc(-c3ccccc3)cc12
AC50 [1]: 31.6 µM [falling, single point]

CN=Cc1sc2ccccc2c1O
AC50 [1]: 12.6 µM [falling, partial curve]

COc1ccc(Nc2ccc3c(c2)=NC2(CCCCC2)[N+]=3[O-])cc1
AC50 [1]: 2 µM [falling, full curve]

CCCc1cc(=O)[nH]c(SCC(=O)N2CCN(c3ccccc3)CC2)n1
AC50 [1]: 31.6 µM [falling, single point]

Cc1ccc(NC(=O)CSc2nnc3scc(-c4ccc(Cl)cc4)n23)cc1
AC50 [1]: 12.6 µM [falling, partial curve, poor fit]

CCN(CC)C(=O)Cn1c(=O)cc(C)c2c(C)nn(-c3cccc(Cl)c3C)c21
AC50 [1]: 12.6 µM [falling, partial curve]

COc1cccc(CNC(=O)C2CCC(CNS(=O)(=O)c3ccc4c(c3)CCCC(=O)N4)CC2)c1 (stereo not drawn)
AC50 [1]: 39.8 µM [falling, single point]

Cc1ccc(Nc2nc3nonc3nc2Nc2cccc(C(F)(F)F)c2)cc1Cl
AC50 [1]: 0.126 µM [falling, full curve]

COc1ccc(NC(=O)Cn2cc(S(=O)(=O)N3CCN(c4ccccc4F)CC3)c3ccccc3c2=O)cc1Cl
AC50 [1]: 1.26 µM [falling, full curve, poor fit]

CCn1c(SCC(=O)c2[nH]c(C)c(C(C)=O)c2C)nnc1-c1cccs1
AC50 [1]: 39.8 µM [falling, partial curve]

CNc1c(NC(=O)c2ccc(OC)c(OC)c2)c(=O)oc2ccccc12
AC50 [1]: 3.16 µM [falling, full curve]

Cc1n[nH]c(C)c1S(=O)(=O)N(CC(=O)Nc1ccc2c(c1)OCCO2)c1ccc(C(C)C)cc1
AC50 [1]: 15.8 µM [falling, partial curve]

Cc1ccc(NC(=O)C(Cc2c[nH]c3ccccc23)NC(=O)OC(C)(C)C)c(C)c1 (stereo not drawn)
AC50 [1]: 12.6 µM [falling, partial curve]

COC(=O)c1ccc(Cl)cc1NC(=O)N1CC2CCCN2c2ccccc21 (stereo not drawn)
AC50 [1]: 10 µM [rising, partial curve]

c1ccc(Cn2nnnc2C(c2cccs2)N2CCCCCC2)cc1 (stereo not drawn)
AC50 [1]: 25.1 µM [falling, single point]

O=c1cc(-c2ccccc2)[nH]n1-c1nc2ccccc2[nH]1
AC50 [1]: 39.8 µM [falling, single point]

Source: PubChem BioAssay AID445 (National Center for Advancing Translational Sciences (NCATS), 2006)
